We go through 16 compounds from PubChem BioAssay AID2685 (National Center for Advancing Translational Sciences (NCATS), 2010).

The nature of the assay: qHTS Assay for Lipid Storage Modulators in Drosophila S3 Cells.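 For cell number change: cells counted by Cell Tracker Red CMTPX staining in the red channel.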 The following applies: BODIPY lipid droplet fluorescence, 18-24 h; for cell number change: measured here: cell count max response, cells fed with added oleic acid. Put shortly: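 Drosophila S3 cells loaded with oleic acid (400 uM, as added) and compounds at several concentrations; lipid droplets imaged by 488-nm laser-scanning cytometry, 500–530 nm intensity and object ratio to cell channel. Percent activity normalized to 20 uM Triacsin C.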

[1] abbreviates: measured here: lipid fluorescence (Fed channel) AC50, cells fed with added oleic acid.
[2] abbreviates: measured here: cell number channel AC50, cells fed with added oleic acid.

Some of the results follow. The main result of the screen is listed elsewhere. These columns were measured beside it and carry no call. Compounds called inactive in the main read-out are mostly missing here. Potencies come from curve fits of mixed quality, noted in brackets.

In general, AC50 refers to the midpoint of the concentration-response curve, whichever way the signal moves. Turning to `COc1ccc(Cl)cc1S(=O)(=O)N1CCN=C1C`, the cell number change was -10.4%. Moreover, the AC50 under setting [1] was 6510 nM [falling, single point].
As to `O=C(NC1CCSC1=O)c1ccc(Oc2ccc(F)cc2)nc1` (stereo not drawn), the cell number change was -30.8%. Moreover, the AC50 under setting [2] is 366 nM [falling, partial curve]. For the same compound, under setting [1], the AC50 is 103 nM [falling, full curve, poor fit].
On to `COc1ccc(Cl)cc1NC(=O)CNC(c1ccccc1)c1ccccc1`, for which the cell number change stood at 7.56%. The half-maximal activity concentration (AC50) under setting [1] is 291 nM [rising, full curve, poor fit].
Regarding `COc1cc2c(cc1NC(=O)CSc1nnnn1-c1ccccc1)oc1ccccc12`, the cell number change was 31.1%. Moreover, the AC50 under setting [2] is 14600 nM [rising, single point].
As for `COc1cc(C)ccc1OCCCCOc1ccccc1C(C)=O`, the cell number change turned out to be 24.9%. Besides, under setting [2], the AC50 was 103 nM [rising, full curve, poor fit]. Further, the AC50 under setting [1] was 103 nM [rising, full curve, poor fit].
Regarding `CC(OC(=O)CNC(=O)c1ccco1)C(=O)Nc1ccc(Cl)cn1` (stereo not drawn), the cell number change was 45.4%. Also, the AC50 under setting [2] was 23100 nM [rising, single point].
As for `COc1ccc(-c2nc(NC(=O)c3c(C)noc3C)sc2C)cc1`, the cell number change is -28.3%. Besides, the AC50 under setting [1] is 6510 nM [falling, single point].
Regarding `COc1ccc(C2c3ccc4ccccc4c3Oc3ncn(CCN4CCOCC4)c(=N)c32)cc1` (stereo not drawn), the cell number change is -6.59%.
On to `O=C(COC(=O)c1cc(Cl)ccc1O)NCC1CCCO1` (stereo not drawn), for which the cell number change was -7.38%. For the same compound, under setting [1], the AC50 is 9200 nM [falling, partial curve, poor fit].
On to `CCOc1nc(Nc2ccc(OC)cc2OC)nc(OCC)n1`, for which the cell number change is -9.39%. For the same compound, the AC50 under setting [1] is 2310 nM [rising, partial curve].
In the case of `COc1ccc(/C(N)=N/OC(=O)CSc2ccc(C)cc2)cc1`, the cell number change came out at 74.2%. Also, the AC50 under setting [2] is 16400 nM [rising, single point]. Moreover, the AC50 under setting [1] was 2310 nM [rising, full curve, poor fit].
Take `COc1ccc(-c2nnc(SCC(=O)/C(C#N)=C(\C)N)o2)cc1`: the cell number change is 6.08%. Besides, the AC50 under setting [1] was 651 nM [rising, full curve, poor fit].
With `CN1CCC(=O)N(CCOc2ccccc2)CC1`, the cell number change turned out to be 29.9%. Also, the AC50 under setting [2] was 2060 nM [rising, full curve, poor fit].
On to `Cc1cc(=O)n2nc(N3CCCC(C(=O)NCc4cccc(Cl)c4)C3)sc2n1` (stereo not drawn), for which the cell number change was -5.9%. Besides, the AC50 under setting [1] is 116 nM [rising, full curve, poor fit].
`CCn1cc(C2=NOC(C(=O)Nc3c(C)nn(Cc4ccc(F)cc4)c3C)C2)c(C)n1` (stereo not drawn): the AC50 by setting is: under setting [2], 517 nM [rising, partial curve]; under setting [1], 259 nM [rising, full curve, poor fit].
Turning to `CCc1ccccc1NC(=O)/C(=C/c1ccco1)c1ccccc1`, under setting [2], the AC50 is 4.11 nM [rising, full curve, poor fit].
